In PubChem BioAssay AID248 (DTP/NCI, 2004):
The list is a part of this screen's results and no random one: it is rich in T/C values a quarter to a half above the control, in often repeated tests (any T/C) and in doses without a T/C. Other doses and runs of a compound stand elsewhere. T/C: endpoint of the treated group in % of that of the vehicle group. Some doses have a count of surviving animals in place of a T/C: the source holds a T/C of zero for them, seemingly a mark for toxic or unscored doses. Survivors were counted at the toxicity check, usually on the fifth day, unless a day is given; later deaths do not show. Schedule codes are those of the source, taken here to give the interval after Q, in days (D) or hours (H), and the number of doses after X.

Tested on: L1210 leukemia ip in BDF1 mice, survival T/C
Experiment: NCI In Vivo Anticancer Drug Screen. Data for tumor model L1210 Leukemia (intraperitoneal) in B6D2F1 (BDF1) mice
Settings: T/C endpoint: mean survival time, vehicle: saline with Tween-80, higher T/C = longer survival

COc1cc2c(cc1OC)C13CCN4CC5=CCOC6CCN2C1C6C5CC43 (stereo unspecified)
survivor count (dose: 200.0 mg/kg/injection, schedule: Q04DX003 (ip)): 1 of 3
survivor count (dose: 400.0 mg/kg/injection, schedule: Q04DX003 (ip)): 0 of 3

O=[As](O)(CC(O)c1ccccc1)c1ccc(Cl)cc1 (stereo unspecified)
survivor count (dose: 50.0 mg/kg/injection, schedule: Q01DX001 (ip)): 0 of 6
survivor count (dose: 100.0 mg/kg/injection, schedule: Q01DX001 (ip)): 0 of 6
survivor count (dose: 200.0 mg/kg/injection, schedule: Q01DX001 (ip)): 0 of 6
survivor count (dose: 400.0 mg/kg/injection, schedule: Q01DX001 (ip)): 0 of 6
